Test results as given in US9290537B2, “Method for cross-linking peptides” (UNIVERSITEIT GENT, priority 2010, dated 2016).
These are yes or no findings as the source states them, for the method shown. Some entries that bind do so weakly or less than the wild type. Sequences can lack the tags named with a protein.

Target: streptavidin (Streptomyces avidinii, UniProt P22629)
Test: furan-oxidation cross-linking in solution (10 eq peptide, NBS activation, NaCNBH3 reduction), MALDI-TOF

| binding | Binder |
| --- | --- |
| binds | WSHPQFEKA (C-terminal (2-furyl)-alanine; N-terminally capped with 2-naphtoic acid) [free C-terminal furan-StrepTagII peptide 5.3, N-terminally naphtoylated] |
| binds | AWSHPQFEK (N-terminal (2-furyl)-alanine, capped with 2-naphtoic acid) [free N-terminal furan-StrepTagII peptide 5.2 capped with 2-naphtoic acid] |
